Measurements from the supplement of paper PMC12009310.
Counter-ions that a name gives are not always drawn. ± gives the standard deviation of the averaged measurements. The list shows a part of the results. Baselines shift from plate to plate; read single values as rough.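 A mouse kidney inner medullary collecting duct cell line was silenced for the ciliary gene Rpgrip1l or given non-targeting control siRNA. Primary scores average two runs versus batch controls. In follow-up screening, hits raised cilia at least 2 over matched controls; compounds lowering cell number by 2 or more were excluded. The cells are a mouse kidney inner medullary collecting duct line, silenced either for the ciliary gene Rpgrip1l or with a non-targeting control siRNA.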

What was measured:
mIMCD3 [1] = test: robust z score of cell number vs plate controls; higher = more cells (less cytotoxic); conditions: 10 µM, 48 h
mIMCD3 [2] = test: robust z score of cilia incidence (% cells with single cilium) vs plate controls; higher = more ciliated cells; conditions: 10 µM; 48 h; siRNA: siScr
mIMCD3 [3] = test: robust z score of cilia incidence (% cells with single cilium) vs plate controls; higher = more ciliated cells (rescue of cilia loss); conditions: 10 µM; 48 h; siRNA: siRpgrip1l
mIMCD3 [4] = test: robust z cell number difference from vehicle control (robust z score difference); higher = more cells; conditions: 10 µM, 48 h
mIMCD3 [5] = test: robust z cilia incidence difference from vehicle control (robust z score difference); higher = more ciliated cells; conditions: 10 µM; 48 h; siRNA: siScr
mIMCD3 [6] = test: robust z cilia incidence difference from vehicle control (robust z score difference); higher = more ciliated cells (rescue); conditions: 10 µM; 48 h; siRNA: siRpgrip1l

Compound | robust z score of cell number (mIMCD3 [1]; siRNA: siRpgrip1l) | robust z score of cell number (mIMCD3 [1]; siRNA: siScr) | robust z score of cilia incidence (mIMCD3 [2]) | robust z score of cilia incidence (mIMCD3 [3]) | robust z cell number difference (mIMCD3 [4]; siRNA: siRpgrip1l) | robust z cell number difference (mIMCD3 [4]; siRNA: siScr) | robust z cilia incidence difference (mIMCD3 [5]) | robust z cilia incidence difference (mIMCD3 [6])
CC[C@@H]1C(=O)OC[C@@H]1Cc1cncn1C [Pilocarpine hydrochloride] | -2.83 ± 2.5 | 1.19 ± 3.6 | 0.698 ± 1.8 | -7.91 ± 0.93 | – | – | – | –
Cc1ccc2c(c1)c1c3n2CCNC3CCC1 (centres undefined) [Pirlindole mesylate] | -14.9 ± 6.8 | -8.34 ± 0.4 | -10.7 ± 3 | -17.9 ± 1.1 | – | – | – | –
CN=c1nc(-c2ccccc2)n(-c2ccccc2)s1 | -138 ± 100 | -17.1 ± 2.3 | -6.64 ± 2.9 | -19.5 ± 5.2 | – | – | – | –
CC[C@]1(O)C[C@H]2CN(CCc3c([nH]c4ccccc34)[C@@](C(=O)OC)(c3cc4c(cc3OC)N(C=O)[C@H]3[C@@](O)(C(=O)OC)[C@H](OC(C)=O)[C@]5(CC)C=CCN6CC[C@]43[C@@H]65)C2)C1 [Vincristine sulfate] | -54.7 ± 46 | -46.8 ± 3.2 | -80.6 ± 16 | -43.7 ± 1.9 | – | – | – | –
C[C@H]1O[C@H](O[C@H]2[C@H](O)[C@@H](O)[C@@H](O[C@H]3[C@H](O)[C@@H](O)C(O)O[C@@H]3CO)O[C@@H]2CO)[C@H](O)[C@@H](O)[C@@H]1N[C@H]1C=C(CO)[C@@H](O)[C@H](O)[C@H]1O (some centres undefined) [Acarbose] | -9.2 ± 4.3 | -60.2 ± 65 | -11.7 ± 12 | -12.4 ± 3 | – | – | – | –
O=C(O)c1cc(=O)c2c(Cl)cc(Cl)cc2[nH]1 [5,7-Dichlorokynurenic acid] | 0.533 ± 2.7 | 3.99 ± 1.5 | -0.303 ± 2.3 | -8.08 ± 7.8 | – | – | – | –
COc1ccc(CC(C)NCC(O)c2ccc(O)c(NC=O)c2)cc1 (centres undefined) [Formoterol hemifumarate] | -26.6 ± 36 | -0.548 ± 2.6 | -1.62 ± 4 | -138 ± 130 | – | – | – | –
O=C1NC(=O)C(c2ccccc2[N+](=O)[O-])=C1Nc1ccc(O)c(Cl)c1 | -21.1 ± 28 | -0.804 ± 1 | 2.21 ± 0.12 | -147 ± 140 | – | – | – | –
CCS(=O)(=O)N(C)[C@H]1c2cc(C#N)ccc2OC(C)(C)[C@@H]1O [(-)-[3R,4S]-Chromanol 293B] | -49.7 ± 68 | -11.7 ± 20 | -0.73 ± 1.1 | -8.76 ± 8.8 | – | – | – | –
CC(=O)N1CCN(C)CC1 [1-Acetyl-4-methylpiperazine hydrochloride] | 11.4 ± 8.4 | -2.24 ± 3.1 | 1.84 ± 1.8 | -2.04 ± 3.4 | 2.35 | 3.6 ± 2.9 | -4.29 ± 8.2 | 0.729
O=C(O)Cn1c(C(=O)Nc2nc(-c3ccccc3Cl)cs2)cc2ccccc21 | -24.2 ± 18 | -30.7 ± 17 | -5.84 ± 3.9 | -29.9 ± 13 | – | – | – | –
O=c1cc(N2CCNCC2)oc2c(-c3ccccc3)cccc12 | -8.71 ± 6.5 | -4.83 ± 1.3 | -5.46 ± 6.3 | -13.6 ± 6.1 | – | – | – | –
Clc1ccc(-c2nc3sccn3c2/C=N/OCc2ccc(Cl)c(Cl)c2)cc1 | -7.53 ± 7.4 | -2.68 ± 7.3 | 0.249 ± 0.91 | -5.69 ± 3.4 | – | – | – | –
CN(Cc1ccccc1)C(=O)[C@H](Cc1ccc2ccccc2c1)NC(=O)[C@@H]1C[C@@H](O)CN1C(=O)c1cn(C)c2ccccc12 | -20.3 ± 10 | -14.4 ± 0.42 | -7.11 ± 9.9 | -18.4 ± 11 | – | – | – | –
CC(C)NCC(O)COc1cccc2[nH]ccc12 (centres undefined) [Pindolol] | 3.41 ± 7 | 0.679 ± 9.6 | 0.872 ± 3.1 | -6.96 ± 6 | -7.75 | -8.49 ± 1.5 | -1.26 ± 0.28 | -12.1
Nc1ncnc2c1nc(Br)n2[C@@H]1O[C@@H]2COP(=O)(O)O[C@H]2[C@H]1O [8-Bromo-cAMP, sodium salt] | -9.65 ± 5.4 | -1 ± 0.46 | 0.829 ± 1 | -15.1 ± 1.2 | – | – | – | –
N#Cc1c(O)c2c(-c3ccc(-c4ccccc4O)cc3)csc2[nH]c1=O | -4.9 ± 3 | 0.245 ± 3 | 1.5 ± 0.09 | -3.47 ± 1.1 | -7.47 | -3.04 ± 4.3 | 2.95 ± 1.2 | -8.19
NC(=O)CCCCn1ccc(NC(N)=NCC(F)(F)F)n1 | -4 ± 3.8 | -4.3 ± 0.14 | 2.21 ± 2 | -1.63 ± 1.9 | -0.317 | -0.578 ± 4 | 1.12 ± 0.052 | 0.329
CNCC[C@@H](Oc1ccccc1C)c1ccccc1 [Tomoxetine hydrochloride] | -5.58 ± 4.9 | -1.25 ± 2.2 | 1.7 ± 0.99 | -21.7 ± 20 | – | – | – | –
CCCCCCCC/C=C\CCCCCCCC(=O)NCCO [Oleylethanolamide] | -11.3 ± 14 | -4.23 ± 1.1 | -8.03 ± 6.4 | -158 ± 95 | – | – | – | –
N#C/C(=C\c1ccc(O)c(O)c1)C(=O)NCCCc1ccccc1 | -48.9 ± 64 | -8.37 ± 5.7 | -12 ± 18 | -9.64 ± 7.3 | – | – | – | –
O=C(O)c1cc(O)c2ccc(Cl)cc2n1 [7-Chlorokynurenic acid] | 17.7 ± 26 | 1.34 ± 0.22 | 1.57 ± 2.1 | -7.13 ± 6.8 | – | – | – | –
COc1ccc(C2CC(c3c(O)cc(C)oc3=O)=NCCS2)c(OC)c1 (centres undefined) | -26.9 ± 24 | -12.9 ± 12 | -18.2 ± 14 | -17.8 ± 3.5 | – | – | – | –
Cc1ccc(S(=O)(=O)/C=C/C#N)cc1 | -52.6 ± 51 | -28 ± 22 | -13.2 ± 8 | -19.5 ± 12 | – | – | – | –
CCCCc1nc2ccn(Cc3cccs3)c(=O)c2n1Cc1ccc(-c2ccccc2-c2nn[nH]n2)cc1 | -0.467 ± 0.38 | -0.505 ± 2.3 | -6.94 ± 2.1 | -35.8 ± 32 | – | – | – | –
CC(=O)N[C@@H](CC(=O)N[C@@H](CCC(=O)O)C(=O)O)C(=O)O [Spaglumic acid] | -6.67 ± 14 | 5.46 ± 4.5 | 0.886 ± 0.87 | -3.1 ± 4.1 | 1.31 | 1.8 ± 3.1 | -4.53 ± 7.9 | 5.31

A few values from the entries so far:
Entry for COc1ccc(C2CC(c3c(O)cc(C)oc3=O)=NCCS2)c(OC)c1 (centres undefined) under robust z score of cell number (mIMCD3 [1]; siRNA: siScr): -12.9 ± 12
Entry for O=C(O)c1cc(=O)c2c(Cl)cc(Cl)cc2[nH]1 [5,7-Dichlorokynurenic acid] under robust z score of cell number (mIMCD3 [1]; siRNA: siScr): 3.99 ± 1.5
